Values of other authors, collected in US20110081293A1, “METHODS AND COMPOSITIONS RELATED TO CLOT-BINDING LIPID COMPOUNDS” (SANFORD-BURNHAM MEDICAL RESEARCH INSTITUTE, priority 2009, published 2011).

Settings: PEGylated vitamin E alone; cited from earlier work

## CC(=O)O[C@H]1C(=O)[C@@]2(C)[C@H]([C@H](OC(=O)c3ccccc3)[C@]3(O)C[C@H](OC(=O)[C@H](O)[C@@H](NC(=O)c4ccccc4)c4ccccc4)C(C)=C1C3(C)C)[C@]1(OC(C)=O)CO[C@@H]1C[C@@H]2O [paclitaxel]
  solubilized concentration of hydrophobic drug: up to 2.5 mg/ml
